{"sequences": {"note": "The chains behind the UniProt entries cited, without tags or fusion partners. Where a name states a change or a piece, a line headed by the entry shows the natural chain unless it says otherwise.", "UniProt P05556": "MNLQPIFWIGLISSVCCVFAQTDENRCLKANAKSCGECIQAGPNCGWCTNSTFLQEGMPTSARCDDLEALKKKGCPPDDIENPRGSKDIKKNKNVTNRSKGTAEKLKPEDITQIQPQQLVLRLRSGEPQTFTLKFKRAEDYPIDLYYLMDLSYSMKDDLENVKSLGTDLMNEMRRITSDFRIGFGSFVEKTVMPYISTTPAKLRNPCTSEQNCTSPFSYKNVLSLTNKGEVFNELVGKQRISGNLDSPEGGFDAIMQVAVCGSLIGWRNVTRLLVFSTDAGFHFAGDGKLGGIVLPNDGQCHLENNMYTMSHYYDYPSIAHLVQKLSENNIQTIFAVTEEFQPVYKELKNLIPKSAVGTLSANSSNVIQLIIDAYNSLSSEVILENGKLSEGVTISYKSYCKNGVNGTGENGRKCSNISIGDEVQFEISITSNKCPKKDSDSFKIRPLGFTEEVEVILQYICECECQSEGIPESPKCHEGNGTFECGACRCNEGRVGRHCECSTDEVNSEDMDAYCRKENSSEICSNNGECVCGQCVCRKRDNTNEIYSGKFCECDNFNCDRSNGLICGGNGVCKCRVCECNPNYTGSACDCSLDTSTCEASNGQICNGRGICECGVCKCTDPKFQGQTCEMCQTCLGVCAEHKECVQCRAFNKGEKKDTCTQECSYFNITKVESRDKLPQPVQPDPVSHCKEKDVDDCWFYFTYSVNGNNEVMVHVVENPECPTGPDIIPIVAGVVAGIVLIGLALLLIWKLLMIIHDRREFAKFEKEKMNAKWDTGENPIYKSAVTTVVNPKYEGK"}, "source": "paper doi:10.1101/2025.05.21.655360", "molecular_target": "T1, V5-tagged full-length Semaphorin 7a (666 aa), overexpressed in MCF7 cells (UniProt O75326)", "T1 sequence": "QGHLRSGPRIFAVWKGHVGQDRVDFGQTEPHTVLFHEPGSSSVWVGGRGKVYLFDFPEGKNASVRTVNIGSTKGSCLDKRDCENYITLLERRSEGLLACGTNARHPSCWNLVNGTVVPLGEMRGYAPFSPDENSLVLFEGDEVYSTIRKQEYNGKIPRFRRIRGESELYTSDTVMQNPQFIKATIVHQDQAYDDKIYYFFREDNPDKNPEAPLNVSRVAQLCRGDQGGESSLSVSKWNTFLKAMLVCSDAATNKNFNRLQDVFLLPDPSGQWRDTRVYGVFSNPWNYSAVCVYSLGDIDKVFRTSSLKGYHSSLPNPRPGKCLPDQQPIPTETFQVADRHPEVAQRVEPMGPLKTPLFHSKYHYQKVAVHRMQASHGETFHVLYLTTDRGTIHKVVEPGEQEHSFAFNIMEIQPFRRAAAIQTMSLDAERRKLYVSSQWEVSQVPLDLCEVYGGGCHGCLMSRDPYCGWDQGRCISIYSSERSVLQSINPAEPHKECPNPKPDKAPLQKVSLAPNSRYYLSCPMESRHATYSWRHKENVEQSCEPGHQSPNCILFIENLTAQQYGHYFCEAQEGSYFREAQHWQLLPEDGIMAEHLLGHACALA", "test": "co-IP", "note": "Results are given in words; binding and its absence hold for the method and conditions named. In cells and extracts the contact can be indirect. Some binding calls cover weakened binding; strength is not graded here. Tags and fused reporters may be left off the sequences shown."}
{"substance": "Integrin β1 (from UniProt P05556 21-798) (receptor)", "values": [{"measurement": "binding", "result": "binds"}]}
